Measurements as given in the supplement of paper PMC7238544.
Where a name gives a salt, the structure may show the parent alone. ± gives the standard deviation of the averaged measurements. The list shows a part of the results. The data scatter; read single values as rough.

Assays:
hAMSC donor 1 [1] = assay: Hoechst total cell count ratio vs vehicle control; higher = more cells (less toxicity)
hAMSC donor 2 [2] = assay: as above
hAMSC donor 1 [3] = assay: transgenic luciferase activity (RLU/mg protein) fold change vs vehicle control (ratio); higher = more transgene expression
hAMSC donor 2 [4] = assay: as above
hAMSC donor 1 [5] = assay: transfection efficiency (EGFP+ cells / Hoechst count) fold change vs vehicle control (ratio); hAMSC are human adipose-derived mesenchymal stem cells given an EGFP-luciferase plasmid by lipofection; higher = enhanced transfection
hAMSC donor 2 [6] = assay: as above
[7] = priming compound concentration 0.2 µM
[8] = priming compound concentration 1.7 µM
[9] = priming compound concentration 13 µM

SMILES	Hoechst total cell count ratio (hAMSC donor 1 [1]; [7])	Hoechst total cell count ratio (hAMSC donor 1 [1]; [8])	Hoechst total cell count ratio (hAMSC donor 1 [1]; [9])	Hoechst total cell count ratio (hAMSC donor 2 [2]; [7])	Hoechst total cell count ratio (hAMSC donor 2 [2]; [8])	Hoechst total cell count ratio (hAMSC donor 2 [2]; [9])	transgenic luciferase activity (hAMSC donor 1 [3]; [7])	transgenic luciferase activity (hAMSC donor 1 [3]; [9])	transgenic luciferase activity (hAMSC donor 2 [4]; [7])	transgenic luciferase activity (hAMSC donor 2 [4]; [8])	transfection efficiency (hAMSC donor 1 [5]; [7])	transfection efficiency (hAMSC donor 1 [5]; [8])	transfection efficiency (hAMSC donor 1 [5]; [9])	transfection efficiency (hAMSC donor 2 [6]; [7])	transfection efficiency (hAMSC donor 2 [6]; [8])	transfection efficiency (hAMSC donor 2 [6]; [9])	transgenic luciferase activity (hAMSC donor 1 [3]; [8])	transgenic luciferase activity (hAMSC donor 2 [4]; [9])
CNCC(O)c1ccc(O)c(O)c1 (stereo not given) [Racepinephrine]	1.3 ± 0.089	1.38 ± 0.3	1.5 ± 0.27	1.14 ± 0.051	0.809 ± 0.059	1.34 ± 0.16	1.2 ± 0.4	0.616 ± 0.46	0.709 ± 0.076	0.501 ± 0.062	1.06 ± 0.34	1.21 ± 0.19	0.98 ± 0.14	1.01 ± 0.045	1.1 ± 0.05	0.68 ± 0.23	–	–
CC(C)NCC(O)COc1ccc(CC(N)=O)cc1 (stereo not given) [Atenolol]	1.06 ± 0.23	1.34 ± 0.2	1.48 ± 0.12	1.22 ± 0.042	0.756 ± 0.018	0.855 ± 0.18	0.474 ± 0.16	–	–	0.789 ± 0.069	1.05 ± 0.13	1.18 ± 0.088	1.07 ± 0.2	0.905 ± 0.12	1.67 ± 0.071	1.4 ± 0.15	1.75 ± 0.23	0.509 ± 0.025
N[C@@H](Cc1cc(I)c(Oc2cc(I)c(O)c(I)c2)c(I)c1)C(=O)O [L-Thyroxine]	1.39 ± 0.031	1.01 ± 0.21	1.14 ± 0.14	0.829 ± 0.29	1.12 ± 0.38	1 ± 0.19	–	1.29 ± 0.28	–	0.495 ± 0.057	0.734 ± 0.24	1.11 ± 0.26	1.38 ± 0.32	1.16 ± 0.43	1.18 ± 0.025	1.18 ± 0.29	0.257 ± 0.17	0.24 ± 0.074
OC(c1cc(C(F)(F)F)nc2c(C(F)(F)F)cccc12)C1CCCCN1 (stereo not given) [Mefloquine hydrochloride]	1.18 ± 0.084	1.6 ± 0.19	1.35 ± 0.12	1.06 ± 0.053	0.821 ± 0.11	0.554 ± 0.14	0.668 ± 0.19	–	–	0.345 ± 0.077	1.05 ± 0.17	1.05 ± 0.057	0.609 ± 0.076	0.805 ± 0.11	1.51 ± 0.088	1.4 ± 0.25	0.842 ± 0.23	0.339 ± 0.13
Cc1nnc(SCC2=C(C(=O)O)N3C(=O)[C@@H](NC(=O)Cn4cnnn4)[C@H]3SC2)s1 [Cefazolin sodium]	1.15 ± 0.16	1.23 ± 0.071	1.05 ± 0.32	1.11 ± 0.049	0.852 ± 0.18	0.624 ± 0.27	0.661 ± 0.16	–	–	0.454 ± 0.027	0.937 ± 0.065	1.34 ± 0.2	1.19 ± 0.23	0.889 ± 0.11	1.39 ± 0.29	1.3 ± 0.68	1.12 ± 0.56	0.437 ± 0.16
O=C(c1ccc(OCCN2CCCCC2)cc1)c1c(-c2ccc(O)cc2)sc2cc(O)ccc12 [Raloxifene hydrochloride]	1.46 ± 0.15	1.4 ± 0.098	1 ± 0.14	0.755 ± 0.37	0.882 ± 0.11	1.13 ± 0.12	–	0.785 ± 0.48	–	0.516 ± 0.03	1.26 ± 0.27	0.887 ± 0.21	1.26 ± 0.26	1.12 ± 0.13	1.05 ± 0.38	0.634 ± 0.12	0.521 ± 0.36	0.235 ± 0.066
Cc1cccc(Nc2ccccc2C(=O)O)c1C [Mefenamic acid]	1.35 ± 0.12	1.51 ± 0.19	1.14 ± 0.11	1.07 ± 0.15	0.602 ± 0.1	0.831 ± 0.13	0.5 ± 0.096	6.95 ± 3.4	0.798 ± 0.32	0.518 ± 0.27	1.26 ± 0.12	1.11 ± 0.15	1.2 ± 0.23	0.906 ± 0.14	1.85 ± 0.22	1.33 ± 0.25	–	–
COC(=O)C[C@](O)(CCCC(C)(C)O)C(=O)O[C@@H]1C(OC)=C[C@]23CCCN2CCc2cc4c(cc2[C@H]13)OCO4 [Homoharringtonine]	0.866 ± 0.027	0.341 ± 0.085	0.405 ± 0.19	0.647 ± 0.028	0.388 ± 0.085	0.126 ± 0.029	1.6 ± 0.91	0.824 ± 1.3	1.86 ± 0.2	0.595 ± 0.16	1.31 ± 0.18	0.99 ± 0.16	0.452 ± 0.1	1.42 ± 0.31	0.993 ± 0.36	0.32 ± 0.16	–	–
CCN(CC)CCNC(=O)c1cc(Cl)c(N)cc1OC [Metoclopramide hydrochloride]	1.37 ± 0.15	1.41 ± 0.1	1.29 ± 0.031	1.2 ± 0.21	0.875 ± 0.061	0.866 ± 0.17	0.582 ± 0.15	7.01 ± 1.7	0.836 ± 0.17	0.418 ± 0.014	1.19 ± 0.46	1.01 ± 0.18	1.31 ± 0.03	0.912 ± 0.15	1.43 ± 0.13	1.24 ± 0.12	–	–
CC[C@H](C)C(=O)O[C@H]1CCC=C2C=C[C@H](C)[C@H](CC[C@@H]3C[C@@H](O)CC(=O)O3)[C@H]21 [Mevastatin]	1.09 ± 0.32	1.06 ± 0.13	0.829 ± 0.15	0.571 ± 0.17	1.17 ± 0.12	0.992	–	0.832 ± 0.48	–	0.512 ± 0.15	1.29 ± 0.59	1.36 ± 0.65	1.63 ± 0.89	1.32 ± 0.34	1.07 ± 0.17	1.22 ± 0.41	0.73 ± 0.55	0.388 ± 0.091
COc1ccc([C@@H]2Sc3ccccc3N(CCN(C)C)C(=O)[C@@H]2OC(C)=O)cc1 [(+)-cis-Diltiazem hydrochloride]	1.15 ± 0.28	1.19 ± 0.1	1.46 ± 0.18	1.37 ± 0.054	0.853 ± 0.11	1.32 ± 0.058	0.951 ± 0.47	15.9 ± 1.1	0.774 ± 0.17	0.763 ± 0.11	1.48 ± 0.2	1.02 ± 0.15	1.37 ± 0.12	0.742 ± 0.022	1.84 ± 0.23	1.43 ± 0.092	–	–
CCCC(=O)Nc1ccc(OCC(O)CNC(C)C)c(C(C)=O)c1 (stereo not given) [Acebutolol hydrochloride]	1.16 ± 0.045	1.04 ± 0.012	1.11 ± 0.23	1.19 ± 0.079	1.04 ± 0.081	0.795 ± 0.14	0.792 ± 0.074	0.878 ± 0.29	0.833 ± 0.22	0.739 ± 0.18	0.813 ± 0.098	1.02 ± 0.21	0.921 ± 0.2	0.868 ± 0.18	1.23 ± 0.13	1.35 ± 0.18	–	–
CCCc1c(OCCCCc2nnn[nH]2)ccc(C(C)=O)c1O	1.29 ± 0.075	1.16 ± 0.25	1.57 ± 0.27	1.2 ± 0.076	0.813 ± 0.13	1.17 ± 0.098	0.802 ± 0.29	1.66 ± 1.3	0.772 ± 0.15	0.716 ± 0.21	1.49 ± 0.57	1.1 ± 0.34	1.05 ± 0.2	1.02 ± 0.18	1.3 ± 0.053	1.12 ± 0.14	–	–
C[C@]12C=CC(=O)C=C1CC[C@@H]1[C@@H]2C(=O)C[C@@]2(C)[C@H]1CC[C@]2(O)C(=O)CO [Prednisone]	1.2 ± 0.14	0.786 ± 0.029	0.967 ± 0.091	0.853 ± 0.23	0.743 ± 0.21	1.03 ± 0.27	–	0.627 ± 0.035	–	0.725 ± 0.092	1.57 ± 0.19	1.39 ± 0.73	1.8 ± 0.64	1.08 ± 0.12	1.04 ± 0.15	1.88 ± 0.033	0.608 ± 0.36	0.422 ± 0.1
CN(C)CCc1c[nH]c2ccc(C[C@H]3COC(=O)N3)cc12 [Zolmitriptan]	1.07 ± 0.19	1.54 ± 0.16	1.11 ± 0.18	1.22 ± 0.054	0.682 ± 0.015	0.906 ± 0.11	0.85 ± 0.5	–	–	0.456 ± 0.03	1.22 ± 0.2	1.08 ± 0.29	1.27 ± 0.27	0.834 ± 0.028	1.46 ± 0.054	1.24 ± 0.18	1.67 ± 0.25	0.431 ± 0.088
O=C1CCC(N2C(=O)c3ccccc3C2=O)C(=O)N1 (stereo not given) [Thalidomide]	1.46 ± 0.097	1.32 ± 0.15	1.21 ± 0.18	1.07 ± 0.11	0.919 ± 0.1	1.04 ± 0.34	0.872 ± 0.47	3.46 ± 5.2	0.828 ± 0.14	0.612 ± 0.17	1.08 ± 0.072	1.1 ± 0.13	0.925 ± 0.21	1.28 ± 0.28	1.3 ± 0.065	1.34 ± 0.45	–	–
CC12CC3CC(C)(C1)CC(N)(C3)C2 [Memantine hydrochloride]	1.46 ± 0.12	1.3 ± 0.15	1.34 ± 0.24	1.16 ± 0.14	0.829 ± 0.059	1.27 ± 0.26	0.51 ± 0.45	2.26 ± 2	0.785 ± 0.029	0.505 ± 0.053	1.35 ± 0.47	1.17 ± 0.22	1.06 ± 0.081	1.18 ± 0.19	1.13 ± 0.26	0.971 ± 0.23	–	–
Cn1cnc([N+](=O)[O-])c1Sc1ncnc2[nH]cnc12 [Azathioprine]	1.11 ± 0.064	1.04 ± 0.028	0.995 ± 0.13	1.27 ± 0.24	1.12 ± 0.32	1.5 ± 0.44	–	1.04 ± 0.45	–	0.703 ± 0.032	1.18 ± 0.28	1.55 ± 0.17	1.55 ± 0.28	0.954 ± 0.23	0.899 ± 0.13	1.18 ± 0.29	0.445 ± 0.44	0.586 ± 0.2
O=C(C1CCCCC1)N1CC(=O)N2CCc3ccccc3C2C1 (stereo not given) [Praziquantel]	1.31 ± 0.17	1.2 ± 0.11	1.29 ± 0.074	1.09 ± 0.09	0.772 ± 0.17	0.822 ± 0.13	0.37 ± 0.12	6.81 ± 3.5	0.789 ± 0.22	0.499 ± 0.23	1.19 ± 0.18	1.32 ± 0.14	1.46 ± 0.085	0.73 ± 0.088	1.35 ± 0.11	1.15 ± 0.33	–	–
CCc1cc(C(N)=S)ccn1 [Ethionamide]	1.18 ± 0.1	0.587 ± 0.038	0.878 ± 0.12	0.839 ± 0.23	1.37 ± 0.11	1.54 ± 0.23	–	1.25 ± 0.045	–	0.667 ± 0.075	1.5 ± 0.53	1.4 ± 0.14	1.76 ± 0.4	0.972 ± 0.24	1.16 ± 0.063	0.85 ± 0.059	0.774 ± 0.25	0.333 ± 0.071

Structural class: those above containing an aryl thioether with sulfur outside any ring
SMILES	Hoechst total cell count ratio (hAMSC donor 1 [1]; [7])	Hoechst total cell count ratio (hAMSC donor 1 [1]; [8])	Hoechst total cell count ratio (hAMSC donor 1 [1]; [9])	Hoechst total cell count ratio (hAMSC donor 2 [2]; [7])	Hoechst total cell count ratio (hAMSC donor 2 [2]; [8])	Hoechst total cell count ratio (hAMSC donor 2 [2]; [9])	transgenic luciferase activity (hAMSC donor 1 [3]; [7])	transgenic luciferase activity (hAMSC donor 1 [3]; [9])	transgenic luciferase activity (hAMSC donor 2 [4]; [7])	transgenic luciferase activity (hAMSC donor 2 [4]; [8])	transfection efficiency (hAMSC donor 1 [5]; [7])	transfection efficiency (hAMSC donor 1 [5]; [8])	transfection efficiency (hAMSC donor 1 [5]; [9])	transfection efficiency (hAMSC donor 2 [6]; [7])	transfection efficiency (hAMSC donor 2 [6]; [8])	transfection efficiency (hAMSC donor 2 [6]; [9])	transgenic luciferase activity (hAMSC donor 1 [3]; [8])	transgenic luciferase activity (hAMSC donor 2 [4]; [9])
Cc1nnc(SCC2=C(C(=O)O)N3C(=O)[C@@H](NC(=O)Cn4cnnn4)[C@H]3SC2)s1 [Cefazolin sodium]	1.15 ± 0.16	1.23 ± 0.071	1.05 ± 0.32	1.11 ± 0.049	0.852 ± 0.18	0.624 ± 0.27	0.661 ± 0.16	–	–	0.454 ± 0.027	0.937 ± 0.065	1.34 ± 0.2	1.19 ± 0.23	0.889 ± 0.11	1.39 ± 0.29	1.3 ± 0.68	1.12 ± 0.56	0.437 ± 0.16
Cn1cnc([N+](=O)[O-])c1Sc1ncnc2[nH]cnc12 [Azathioprine]	1.11 ± 0.064	1.04 ± 0.028	0.995 ± 0.13	1.27 ± 0.24	1.12 ± 0.32	1.5 ± 0.44	–	1.04 ± 0.45	–	0.703 ± 0.032	1.18 ± 0.28	1.55 ± 0.17	1.55 ± 0.28	0.954 ± 0.23	0.899 ± 0.13	1.18 ± 0.29	0.445 ± 0.44	0.586 ± 0.2
